# In paper doi:10.1101/2020.09.10.291369:
# Results are given in words; binding and its absence hold for the method and conditions named. A result given as binding can be weak or reduced; the word gives no strength.
# Target: T1, LONP1^S855A (catalytic dead mutant of the LONP1 protease, traps substrates without degrading them) (UniProt P36776)
# T1 sequence: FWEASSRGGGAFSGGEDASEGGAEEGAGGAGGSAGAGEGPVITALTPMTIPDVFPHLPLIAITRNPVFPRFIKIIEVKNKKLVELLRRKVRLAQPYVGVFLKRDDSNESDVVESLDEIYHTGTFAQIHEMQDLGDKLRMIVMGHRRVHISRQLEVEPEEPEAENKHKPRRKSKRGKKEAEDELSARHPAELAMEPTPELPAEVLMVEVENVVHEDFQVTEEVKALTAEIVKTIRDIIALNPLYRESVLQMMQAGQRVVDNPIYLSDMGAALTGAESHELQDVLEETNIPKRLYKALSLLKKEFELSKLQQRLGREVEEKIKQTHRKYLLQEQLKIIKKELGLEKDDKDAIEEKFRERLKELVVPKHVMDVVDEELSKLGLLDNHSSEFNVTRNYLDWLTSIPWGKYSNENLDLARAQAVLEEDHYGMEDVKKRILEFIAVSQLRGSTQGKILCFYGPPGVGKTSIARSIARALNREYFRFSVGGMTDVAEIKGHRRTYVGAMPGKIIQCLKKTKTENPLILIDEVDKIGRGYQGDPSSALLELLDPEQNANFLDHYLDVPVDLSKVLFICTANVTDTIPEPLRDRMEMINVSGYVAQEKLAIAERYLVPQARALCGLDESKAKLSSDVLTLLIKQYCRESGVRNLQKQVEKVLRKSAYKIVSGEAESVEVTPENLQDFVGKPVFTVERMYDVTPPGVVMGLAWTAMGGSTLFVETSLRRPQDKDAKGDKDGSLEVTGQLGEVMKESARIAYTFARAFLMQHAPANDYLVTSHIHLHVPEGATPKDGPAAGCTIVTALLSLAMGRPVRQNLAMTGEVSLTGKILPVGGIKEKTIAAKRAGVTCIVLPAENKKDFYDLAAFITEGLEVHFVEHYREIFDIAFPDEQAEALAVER
# Experiment: SEC
substance,measurement,value
"POLγA^WT, catalytic subunit of the mitochondrial DNA polymerase gamma (mouse) (enzyme)",binding,binds
